The list shows only some results of the screen, not a fair sample: it gathers tests that were run many times, whatever their T/C, doses with no T/C, and many T/C values between a quarter and a half above the control. Other doses and runs of a compound stand elsewhere. T/C gives the treated animals as a percentage of the vehicle group. Some entries give survivors of the animals treated and no T/C: the source files T/C as zero there, which appears to mark a toxic dose or a test without result, not a measured value. Some survivor counts are full or nearly so, which does not show that the dose was tolerated: the source hardly ever lists a survival T/C far under the control, and the zero likely stands for such cases as well. Counts of survivors are from the toxicity check (mostly the fifth day) where no day follows; animals may have died later. Schedule codes are those of the source, read here as Q, the interval in days (D) or hours (H), X, the number of doses. Signs of the kind (2×) give the number of equal values in this list. Some doses were run more than once; the values are given in rising order. For survival time, this PubChem deposit counts one and a half times the control or more as active, and values a quarter to a half above the control carry no call in these data; other NCI protocols may use other cut-offs. Some T/C values are followed by the survivors on the day toxicity was checked, most often the fifth; without a count, all were alive then.

The test has as its system B6C3F1 mice, B16 melanoma ip, median survival T/C. The test can be described thus: NCI In Vivo Anticancer Drug Screen. Data for tumor model B16 Melanoma (intraperitoneal) in B6C3F1 mice. As to conditions: T/C endpoint: median survival time, higher T/C = longer survival. A digest of the protocol: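 Mice bearing transplanted tumor were dosed with compound or vehicle, and survival was recorded. Activity is expressed as the treated-group measurement (T) divided by the vehicle control measurement (C).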

[1] abbreviates: dose: 12.5 mg/kg/injection, schedule: Q01DX009 (ip), vehicle: saline with Tween-80.
Where [2] appears, read: dose: 25.0 mg/kg/injection, schedule: Q01DX009 (ip), vehicle: saline with Tween-80.
The mark [3] stands for this setting: dose: 50.0 mg/kg/injection, schedule: Q01DX009 (ip), vehicle: saline with Tween-80.
The mark [4] stands for this setting: dose: 100.0 mg/kg/injection, schedule: Q01DX009 (ip), vehicle: saline with Tween-80.
[5] abbreviates: dose: 400.0 mg/kg/injection, schedule: Q01DX009 (ip), vehicle: saline.
The mark [6] stands for this setting: dose: 25.0 mg/kg/injection, schedule: Q01DX009 (ip), vehicle: Klucel (hydroxypropylcellulose) (HPC).
The mark [7] stands for this setting: dose: 50.0 mg/kg/injection, schedule: Q01DX009 (ip), vehicle: Klucel (hydroxypropylcellulose) (HPC).
Setting [8] is: dose: 12.5 mg/kg/injection, schedule: Q01DX009 (ip), vehicle: Klucel (hydroxypropylcellulose) (HPC).
Setting [9] is: dose: 8.0 micrograms/kg/injection, schedule: Q01DX009 (ip), vehicle: saline.

In the case of `COc1cc(/C=C/[N+](=O)[O-])cc(Br)c1OC`, the survivor count is on record as 10 of 10 under setting [1], 10 of 10 under setting [2], 6 of 10 under setting [3] and 0 of 10 under setting [4].
Turning to `C=C1C(=O)C23[C@H](O)C1CC[C@H]2[C@]12COC3(O)[C@@H](O)[C@@H]1C(C)(C)CC[C@@H]2O`, the survivor count reads like this: (dose: 36.0 mg/kg/injection, schedule: Q01DX009 (ip), vehicle: Klucel (hydroxypropylcellulose) (HPC)) 10 of 10; under setting [3], 1 of 10.
On to `O=C1c2ccccc2CCC1Cl` (centres undefined), for which the survivor count by setting is: (dose: 0.18 mg/kg/injection, schedule: Q01DX009 (ip), vehicle: DMSO) 10 of 10; (dose: 0.37 mg/kg/injection, schedule: Q01DX009 (ip), vehicle: DMSO) 9 of 9; (dose: 0.75 mg/kg/injection, schedule: Q01DX009 (ip), vehicle: DMSO) 10 of 10; (dose: 1.5 mg/kg/injection, schedule: Q01DX009 (ip), vehicle: DMSO) 8 of 10; (dose: 6.0 mg/kg/injection, schedule: Q01DX009 (ip), vehicle: DMSO) 10 of 10; (dose: 12.0 mg/kg/injection, schedule: Q01DX009 (ip), vehicle: DMSO) 8 of 10. Also, the survivor count (dose: 25.0 mg/kg/injection, schedule: Q01DX009 (ip), vehicle: DMSO) is on record as 7 of 7; the survivor count (dose: 50.0 mg/kg/injection, schedule: Q01DX009 (ip), vehicle: DMSO) is on record as 7 of 7; the survivor count (dose: 100.0 mg/kg/injection, schedule: Q01DX009 (ip), vehicle: DMSO) was 4 of 7.
In the case of `Clc1ncnc2c1ncn2C1CCCO1` (centres undefined), the survivor count runs as follows: (dose: 200.0 mg/kg/injection, schedule: Q01DX009 (ip), vehicle: saline) 5 of 6; under setting [5], 0 of 6.
In the case of `O=NN(CCCl)C(=O)Oc1ccc(OC(=O)N(CCCl)N=O)cc1`, the survivor count under setting [6] is 9 of 10 and the survivor count under setting [7] is 9 of 10.
Turning to `NC(N)=NCCCC(NC(=O)c1ccccc1)C(=O)O` (centres undefined), the T/C (dose: 160.0 mg/kg/injection, schedule: Q01DX009 (ip), vehicle: saline with Tween-80) was 133 % of control.
Turning to `C/C(=N\N=C(/[Se])N1CC2CCC(CC2)C1)c1ccccn1`, the T/C reads like this: (dose: 1.5 mg/kg/injection, schedule: Q01DX009 (ip), vehicle: Klucel (hydroxypropylcellulose) (HPC)) 125 % of control; (dose: 3.0 mg/kg/injection, schedule: Q01DX009 (ip), vehicle: Klucel (hydroxypropylcellulose) (HPC)) 126 % of control. Moreover, the survivor count was 9 of 10 and 10 of 10 (dose: 12.0 mg/kg/injection, schedule: Q01DX009 (ip), vehicle: Klucel (hydroxypropylcellulose) (HPC)); 3 of 10 under setting [6].
In the case of `COC1=C(OC)C(=O)C(SC/C=C(\C)CCCC(C)CCCC(C)CCCC(C)C)=CC1=O` (centres undefined), the T/C under setting [4] was 130 % of control. In addition, the survivor count (dose: 200.0 mg/kg/injection, schedule: Q01DX009 (ip), vehicle: saline with Tween-80) is 10 of 10.
Turning to `COc1cc2cc(c1Cl)N(C)C(=O)CC(OC(=O)C(C)NC(=O)C(C)C)C1(C)OC1C(C)C1CC(O)(NC(=O)O1)C(OC)/C=C/C=C(C)C2OC` (centres undefined), the T/C reads like this: (dose: 16.0 micrograms/kg/injection, schedule: Q01DX009 (ip), vehicle: distilled water + alcohol) 128 % of control; (dose: 32.0 micrograms/kg/injection, schedule: Q01DX009 (ip), vehicle: distilled water + alcohol) 128 % of control.
With `S=c1[nH]cc2cnccn12`, the survivor count (dose: 400.0 mg/kg/injection, schedule: Q01DX009 (ip), vehicle: saline with Tween-80) is on record as 7 of 10.
`CCC(=O)OCC1OC(n2cnc3c(=S)nc(N)[nH]c32)C(OC(=O)CC)C1OC(=O)CC` (centres undefined): the T/C under setting [8] was 125 % of control. The survivor count by setting is: under setting [7], 10 of 10; (dose: 100.0 mg/kg/injection, schedule: Q01DX009 (ip), vehicle: Klucel (hydroxypropylcellulose) (HPC)) 10 of 10.
Turning to `C/C=C/c1cc2n(c1)C(=O)c1cc(OC3OC(C)C(NC)C(C)(O)C3O)c(C)c(O)c1NC2O` (centres undefined), the T/C by setting is: (dose: 1.0 micrograms/kg/injection, schedule: Q01DX009 (ip), vehicle: saline) 115, 126, 155, 163 % of control; (dose: 2.0 micrograms/kg/injection, schedule: Q01DX009 (ip), vehicle: saline) 136, 145, 149, 165 % of control; (dose: 4.0 micrograms/kg/injection, schedule: Q01DX009 (ip), vehicle: saline) 147 [9 of 10 alive], 163 [8 of 10 alive], 164, 166 % of control; (dose: 4.0 micrograms/kg/injection, schedule: Q04DX003 (ip), vehicle: DMSO) 125 % of control; under setting [9], 176 % of control; (dose: 8.0 micrograms/kg/injection, schedule: Q04DX003 (ip), vehicle: DMSO) 143 % of control. Further, the T/C was 134 % of control (dose: 16.0 micrograms/kg/injection, schedule: Q04DX003 (ip), vehicle: DMSO) and 132 % of control (dose: 32.0 micrograms/kg/injection, schedule: Q04DX003 (ip), vehicle: DMSO). Besides, the survivor count is 7 of 10, 10 of 10, 8 of 8 under setting [9]; 10 of 10 (2×) (dose: 16.0 micrograms/kg/injection, schedule: Q01DX009 (ip), vehicle: saline); 5 of 10 (dose: 32.0 micrograms/kg/injection, schedule: Q01DX009 (ip), vehicle: saline).
On to `Cc1ccc(C2NC(=S)N3C(c4ccc(C)cc4)NC(=S)N23)cc1` (centres undefined), for which the T/C (dose: 800.0 mg/kg/injection, schedule: Q01DX009 (ip), vehicle: Klucel (hydroxypropylcellulose) (HPC)) was 129 % of control.
Take `CCCNC1=C(C)C(=O)C2=C(C1=O)[C@H](COC(N)=O)[C@]1(OC)[C@@H]3N[C@@H]3CN21`: the T/C is, setting by setting: (dose: 0.78 mg/kg/injection, schedule: Q01DX009 (ip), vehicle: saline) 134 % of control; under setting [8], 133 % of control. The survivor count by setting is: (dose: 6.25 mg/kg/injection, schedule: Q01DX009 (ip), vehicle: saline) 10 of 10; (dose: 12.5 mg/kg/injection, schedule: Q01DX009 (ip), vehicle: saline) 10 of 10.
With `O=C(O)C1C2CC3C(C2)C31.[Ag]` (centres undefined), the survivor count under setting [7] is 2 of 10.
For `CC1OC2CC(=O)OC2C2=C1C(=O)c1cc(-c3cc(O)c4c(c3)C(=O)C3=C(C4=O)C4OC(=O)CC4OC3C)cc(O)c1C2=O` (centres undefined), the survivor count was 10 of 10 (dose: 1.0 mg/kg/injection, schedule: Q01DX009 (ip), vehicle: other); 10 of 10 (dose: 2.0 mg/kg/injection, schedule: Q01DX009 (ip), vehicle: other); 10 of 10 (dose: 4.0 mg/kg/injection, schedule: Q01DX009 (ip), vehicle: other).
On to `Cc1cc2c(C(C)C)c(O)c(O)c(C=O)c2c(O)c1-c1c(C)cc2c(C(C)C)c(O)c(O)c(C=O)c2c1O`, for which the survivor count was 10 of 10 (dose: 6.0 mg/kg/injection, schedule: Q01DX009 (ip), vehicle: saline with Tween-80); 10 of 10 (dose: 6.25 mg/kg/injection, schedule: Q01DX009 (ip), vehicle: saline with Tween-80); 10 of 10 under setting [1]; 1 of 10 under setting [2]; 0 of 10 under setting [3]; 0 of 10 under setting [4].
In the case of `CC(=O)OCC1OC(n2ccc(N)nc2=O)C(OC(C)=O)C1OC(C)=O` (centres undefined), the survivor count under setting [5] is reported as 9 of 10.

For the origin of these results see PubChem BioAssay AID200 (DTP/NCI, 2004).
